Reference: PubChem BioAssay AID1259354 (Paczesny and Yang Labs, IUPUI and University of Michigan, 2018)
“And” between values parts separate entries of the source, which are not always exact repeats. Identical values can stand only once. About 1,800 (2.3%) of roughly 78,000 compounds were called active. The shares of active, inactive and inconclusive entries below differ from those in the screen. No stated cut-off is given here; in the data, active means inhibition above about 30%; inconclusive means mostly about 10% to 28%; inactive means weaker than that.

By UniProt entry, the sequences of proteins in these tests, tags left out. Where a name states a change or a piece, a line headed by the entry shows the natural chain unless it says otherwise.
UniProt Q01638: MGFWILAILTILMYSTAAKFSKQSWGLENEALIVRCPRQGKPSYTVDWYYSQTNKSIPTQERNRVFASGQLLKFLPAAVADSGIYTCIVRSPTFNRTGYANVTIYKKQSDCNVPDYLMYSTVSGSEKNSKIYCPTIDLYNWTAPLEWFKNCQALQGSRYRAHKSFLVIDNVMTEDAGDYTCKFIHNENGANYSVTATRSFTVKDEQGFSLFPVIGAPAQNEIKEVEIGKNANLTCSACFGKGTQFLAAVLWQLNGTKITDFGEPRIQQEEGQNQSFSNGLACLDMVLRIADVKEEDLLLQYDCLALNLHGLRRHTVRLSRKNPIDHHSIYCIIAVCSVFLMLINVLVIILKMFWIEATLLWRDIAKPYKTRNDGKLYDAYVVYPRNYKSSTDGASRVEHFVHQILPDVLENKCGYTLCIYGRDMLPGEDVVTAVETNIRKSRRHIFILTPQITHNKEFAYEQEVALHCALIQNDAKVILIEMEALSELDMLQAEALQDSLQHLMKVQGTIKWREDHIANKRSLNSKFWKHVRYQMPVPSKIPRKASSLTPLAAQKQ

These compounds were tested against Interleukin-1 receptor-like 1 (Homo sapiens) (UniProt Q01638) (assay: blocks human ST2 binding to IL-33, primary screen, biochemical, AlphaLISA (AID 1259354)). Settings: AlphaLISA ST2-Fc/biotin-IL-33 interaction, 1 h; at 17 µM, stronger effect = higher value.
In the case of `COc1ccc(C2CC(c3cccc(OC)c3)Nc3nc(N)nn32)cc1` (stereo not given), the inhibition is reported as inconclusive: 13%. With `O=c1oc(/C=C/c2cccc([N+](=O)[O-])c2)nc2ccc(Br)cc12` the inhibition was inconclusive: 21%. `O=C(c1ccc(Br)o1)N1CCN(c2ccccc2)CC1` was tested, and the inhibition was inconclusive: 20%. In the case of `O=C(Cc1ccc([N+](=O)[O-])cc1)NCCC1=CCCCC1`, the inhibition is reported as inconclusive: 12%. With `COC(=O)c1ccc2c(c1)N(Cc1cccc(F)c1)C(=O)CS2=O` (stereo not given) the inhibition was inconclusive: 18%. `Cc1sc2ncnc(SCC(=O)O)c2c1C` was tested, and the inhibition was inconclusive: 21%. For `Cn1c(C(=O)N2CCCC3(CC2)CNC(=O)O3)ccc1-c1ccccc1` (stereo not given), the inhibition was inconclusive: 12%. With `O=C(Nc1cccc(Cl)c1)c1cc2cc3ccc(Cl)cc3nc2o1` the inhibition was inconclusive: 18% and inconclusive: 11%. `COc1ccc(-c2nc(SCC(=O)Nc3nccs3)c(-c3ccccc3)[nH]2)cc1OC` was tested, and the inhibition was inconclusive: 12%. With `Cn1cc(CN2CC(OCc3cccnc3)CN(Cc3ccc4c(c3)CCO4)CC2=O)cn1` (stereo not given) the inhibition was inconclusive: 12%. `CCC(C)NC(=O)Cn1c(=O)n(Cc2ccc(C(=O)NC(C)C)cc2)c(=O)c2cc(OC)c(OC)cc21` (stereo not given) was tested, and the inhibition was “inactive”. `COC[C@H]1CCCN1C(=O)CC[C@H]1CNC(=O)[C@@H]2[C@@H](CCN2Cc2ccc(OC)cc2)N1C` was tested, and the inhibition was “inactive”. In the case of `O=C(Nc1cccc(F)c1)N1Cc2[nH]cnc2C[C@H]1c1nc(-c2ccc3c(c2)OCO3)no1`, the inhibition is reported as inconclusive: 16%. With `Cc1cc(Br)ccc1NS(=O)(=O)c1cccc2nsnc12` the inhibition was inconclusive: 13%. In the case of `Cc1ccc2nc(C)c(C(=O)NC3CC(=O)N(C(C)C)C3)cc2c1` (stereo not given), the inhibition is reported as inconclusive: 17%. `Cc1cc(Nc2ccccc2)nc(Nc2ccc(NC(=O)c3ccccc3)cc2)n1` was tested, and the inhibition was active: 32%. With `O=C(Cn1nc(-c2ccccc2)ccc1=O)NCCCN1CCc2ccccc2C1` the inhibition was inconclusive: 11%. In the case of `CC(=O)c1ccc(NC(=O)c2cc3cc(Br)ccc3oc2=O)cc1`, the inhibition is reported as active: 39%. With `O=C(O/N=C1\C=CC(=O)C2C3C=CC(C3)C12)c1ccccc1` (stereo not given) the inhibition was inconclusive: 17%. In the case of `CCCCN(CC)S(=O)(=O)c1ccc(C(=O)Nc2nnc(COC)o2)cc1`, the inhibition is reported as “inactive”. For `COc1ccc(NCN2C(=O)c3cccc([N+](=O)[O-])c3C2=O)cc1`, the inhibition was inconclusive: 21%. In the case of `Cc1cnc(C)c(N2CCN(Cc3nc(-c4sccc4C)oc3C)CC2)n1`, the inhibition is reported as “inactive”. In the case of `CCOC(=O)c1ccc2c(c1)N(Cc1ccc(F)cc1Cl)C(=O)CS2`, the inhibition is reported as “inactive”. In the case of `Cc1ccc(CCNC(=O)c2ccc(NC3=NC4CS(=O)(=O)CC4S3)cc2)cc1` (stereo not given), the inhibition is reported as inconclusive: 11%. `CCC(C(=O)NCCO)c1ccccc1` (stereo not given) was tested, and the inhibition was “inactive”. With `Cc1cc(C)c(C#N)c(SCC(=O)Nc2ccc(F)cc2)n1` the inhibition was “inactive”. For `O=C(CSc1nc2c(sc3ccccc32)c(=O)n1CCO)Nc1ccc(F)cc1`, the inhibition was inconclusive: 21%. With `CC(C)CC(NC1CCN(C(=O)c2ccccc2)CC1)c1ncnn1C` (stereo not given) the inhibition was inconclusive: 12%. `COc1ccc(-c2nc(N)n(C(=O)c3ccc(OC)c(OC)c3)n2)cc1` was tested, and the inhibition was inconclusive: 14%. With `CCCOC(=O)C1C2C=CC3(CN(CC4CCCO4)C(=O)C13)O2` (stereo not given) the inhibition was “inactive”. `CCn1cc(C(=O)NC2CCCC(C)C2C)c2cc(OC)c(OC)cc2c1=O` (stereo not given) was tested, and the inhibition was inconclusive: 13%. `Nc1ccc2c(c1)S(=O)(=O)c1cc(N)ccc1O2` was tested, and the inhibition was “inactive”. `CC1CCCCN1S(=O)(=O)c1ccc(C(=O)Nc2nnc(-c3cccs3)o2)cc1` (stereo not given) was tested, and the inhibition was inconclusive: 13%. `CCC(CC)C(=O)Nc1ccc(Nc2nc(C)cc(Nc3ccc(C)cc3)n2)cc1` was tested, and the inhibition was “inactive”. `Cc1c(C(=O)NC(=O)Nc2ccccc2C(F)(F)F)c(Cl)nc(Cl)c1[N+](=O)[O-]` was tested, and the inhibition was “inactive”. With `CSc1ccc(C2Nc3ccc(C(=O)c4ccccc4)cc3NC3=C2C(=O)CCC3)cc1` (stereo not given) the inhibition was inconclusive: 17%. With `Cc1ccc(C(c2sc3nc(C)nn3c2O)N2CCOCC2)cc1` (stereo not given) the inhibition was inconclusive: 14%. For `CCC(=O)Nc1ccc2nc(C)[nH]c2c1`, the inhibition was inconclusive: 19%. For `CCN(C(=O)c1cc2cc3ccc(OC)cc3nc2s1)c1cc(OC)ccc1OC`, the inhibition was active: 31%. For `O=C(CN1N=NC2C(=O)N(c3ccccc3)C(=O)C21)Nc1ccccc1F` (stereo not given), the inhibition was “inactive”. `[N-]=C=C1C(=S)NC(=O)[C@H]([n+]2ccccc2)C1c1ccc(F)c(Br)c1` (stereo not given in full) was tested, and the inhibition was inconclusive: 17%. For `CSc1ccc(CN2CCCC(CCC(=O)NC3CC3)C2)cc1` (stereo not given), the inhibition was “inactive”. With `COc1cccc(/C=C2/N=C(c3ccc(NC(C)=O)cc3)OC2=O)c1` the inhibition was inconclusive: 16%. For `C=CCCC(=O)N1CCOC(CCCc2ccccc2)C1` (stereo not given), the inhibition was inconclusive: 10%. With `O=C(NC1CCCCC1)N1C[C@@H]2C[C@H](C1)c1c(NS(=O)(=O)c3ccccc3)ccc(=O)n1C2` the inhibition was inconclusive: 15%.
